Amino acid sequences for entries named in this document (tags omitted). A change or cut given only in a name is not applied to a line headed by its entry.
UniProt Q8NHU6: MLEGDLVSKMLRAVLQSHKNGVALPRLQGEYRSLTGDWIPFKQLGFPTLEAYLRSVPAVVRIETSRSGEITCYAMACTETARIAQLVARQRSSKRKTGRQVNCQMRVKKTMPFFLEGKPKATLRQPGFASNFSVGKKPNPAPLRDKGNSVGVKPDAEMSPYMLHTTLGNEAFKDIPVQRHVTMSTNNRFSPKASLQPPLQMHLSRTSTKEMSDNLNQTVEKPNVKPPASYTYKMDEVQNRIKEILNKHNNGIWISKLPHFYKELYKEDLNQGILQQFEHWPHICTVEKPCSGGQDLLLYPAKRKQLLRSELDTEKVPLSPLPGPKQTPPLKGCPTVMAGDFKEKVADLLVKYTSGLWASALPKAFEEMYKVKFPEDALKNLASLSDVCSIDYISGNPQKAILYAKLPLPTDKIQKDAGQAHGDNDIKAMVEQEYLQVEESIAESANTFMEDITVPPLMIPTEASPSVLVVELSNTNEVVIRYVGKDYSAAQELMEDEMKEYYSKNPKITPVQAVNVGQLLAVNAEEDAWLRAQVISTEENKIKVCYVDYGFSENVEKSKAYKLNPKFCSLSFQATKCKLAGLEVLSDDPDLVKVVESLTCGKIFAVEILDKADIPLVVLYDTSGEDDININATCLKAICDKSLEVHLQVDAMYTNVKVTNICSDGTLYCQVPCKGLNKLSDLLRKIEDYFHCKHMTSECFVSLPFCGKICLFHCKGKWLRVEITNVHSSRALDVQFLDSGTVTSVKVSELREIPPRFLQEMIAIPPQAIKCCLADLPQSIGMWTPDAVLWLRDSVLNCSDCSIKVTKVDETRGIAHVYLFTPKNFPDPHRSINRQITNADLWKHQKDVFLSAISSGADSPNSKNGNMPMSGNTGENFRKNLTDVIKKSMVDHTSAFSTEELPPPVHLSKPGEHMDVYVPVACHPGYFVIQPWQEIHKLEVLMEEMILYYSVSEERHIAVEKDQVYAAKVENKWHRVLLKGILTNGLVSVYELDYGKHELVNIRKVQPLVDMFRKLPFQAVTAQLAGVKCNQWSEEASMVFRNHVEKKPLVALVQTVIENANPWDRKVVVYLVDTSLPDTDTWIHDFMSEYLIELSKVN
UniProt Q9UGI8: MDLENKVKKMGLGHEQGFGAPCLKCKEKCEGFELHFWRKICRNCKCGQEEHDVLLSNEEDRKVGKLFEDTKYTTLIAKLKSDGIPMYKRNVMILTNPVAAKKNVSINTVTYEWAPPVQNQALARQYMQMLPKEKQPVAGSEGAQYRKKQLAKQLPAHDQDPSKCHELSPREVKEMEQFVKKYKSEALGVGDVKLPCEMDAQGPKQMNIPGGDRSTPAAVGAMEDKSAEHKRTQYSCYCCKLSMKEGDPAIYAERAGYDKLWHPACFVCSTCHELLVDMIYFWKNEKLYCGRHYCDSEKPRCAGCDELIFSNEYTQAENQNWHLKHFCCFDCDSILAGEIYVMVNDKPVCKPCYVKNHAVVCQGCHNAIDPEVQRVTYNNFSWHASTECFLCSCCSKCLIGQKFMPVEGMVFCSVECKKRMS
UniProt Q6P9B6: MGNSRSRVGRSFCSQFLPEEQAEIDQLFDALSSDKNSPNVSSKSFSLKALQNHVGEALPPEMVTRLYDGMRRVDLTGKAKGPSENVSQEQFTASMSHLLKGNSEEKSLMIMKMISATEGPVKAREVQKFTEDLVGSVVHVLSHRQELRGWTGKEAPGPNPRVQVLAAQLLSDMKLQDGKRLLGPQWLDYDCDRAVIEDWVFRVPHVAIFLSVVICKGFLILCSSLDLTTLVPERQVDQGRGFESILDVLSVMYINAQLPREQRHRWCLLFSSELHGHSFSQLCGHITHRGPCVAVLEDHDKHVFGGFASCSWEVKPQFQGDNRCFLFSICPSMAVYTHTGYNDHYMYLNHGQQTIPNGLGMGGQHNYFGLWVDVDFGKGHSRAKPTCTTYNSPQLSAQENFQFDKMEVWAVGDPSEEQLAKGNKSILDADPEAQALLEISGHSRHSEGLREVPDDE
UniProt P42680: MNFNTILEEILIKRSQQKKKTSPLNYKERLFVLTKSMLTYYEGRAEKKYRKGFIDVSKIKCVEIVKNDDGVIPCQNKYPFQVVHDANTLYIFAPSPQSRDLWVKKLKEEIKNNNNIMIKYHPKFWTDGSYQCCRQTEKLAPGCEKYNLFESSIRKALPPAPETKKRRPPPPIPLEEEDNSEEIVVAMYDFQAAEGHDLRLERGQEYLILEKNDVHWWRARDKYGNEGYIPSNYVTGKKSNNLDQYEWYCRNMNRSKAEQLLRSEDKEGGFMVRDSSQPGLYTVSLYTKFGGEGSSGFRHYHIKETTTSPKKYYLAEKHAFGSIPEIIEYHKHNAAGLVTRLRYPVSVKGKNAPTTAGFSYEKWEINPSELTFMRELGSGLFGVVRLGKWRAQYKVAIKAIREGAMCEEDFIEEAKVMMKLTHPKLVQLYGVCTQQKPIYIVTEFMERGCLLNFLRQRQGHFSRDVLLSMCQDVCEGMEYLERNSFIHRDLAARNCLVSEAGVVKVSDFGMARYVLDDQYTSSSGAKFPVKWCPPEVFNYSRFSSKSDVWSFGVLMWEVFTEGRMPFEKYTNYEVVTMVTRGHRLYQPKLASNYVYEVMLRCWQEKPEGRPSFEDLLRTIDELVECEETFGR
UniProt O43294, whole entry, looked up: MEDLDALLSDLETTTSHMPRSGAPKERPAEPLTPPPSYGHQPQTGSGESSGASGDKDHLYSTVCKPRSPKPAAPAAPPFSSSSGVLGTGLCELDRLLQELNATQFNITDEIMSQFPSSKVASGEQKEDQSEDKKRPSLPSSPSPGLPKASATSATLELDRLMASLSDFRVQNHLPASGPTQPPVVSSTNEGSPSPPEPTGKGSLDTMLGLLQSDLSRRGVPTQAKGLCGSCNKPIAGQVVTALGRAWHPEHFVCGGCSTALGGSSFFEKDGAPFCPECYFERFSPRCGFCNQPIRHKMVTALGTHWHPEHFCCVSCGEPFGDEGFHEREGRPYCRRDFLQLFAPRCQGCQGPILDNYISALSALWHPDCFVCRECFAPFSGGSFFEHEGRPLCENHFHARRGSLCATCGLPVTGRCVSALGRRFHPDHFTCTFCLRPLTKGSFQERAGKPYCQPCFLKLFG
UniProt Q5JUR7: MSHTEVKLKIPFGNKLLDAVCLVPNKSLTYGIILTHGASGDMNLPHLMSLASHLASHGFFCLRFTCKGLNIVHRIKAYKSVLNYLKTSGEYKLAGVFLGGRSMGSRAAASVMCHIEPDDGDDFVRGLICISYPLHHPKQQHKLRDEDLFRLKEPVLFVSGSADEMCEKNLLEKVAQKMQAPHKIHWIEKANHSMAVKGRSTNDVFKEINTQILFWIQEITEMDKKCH
UniProt Q9UGU0: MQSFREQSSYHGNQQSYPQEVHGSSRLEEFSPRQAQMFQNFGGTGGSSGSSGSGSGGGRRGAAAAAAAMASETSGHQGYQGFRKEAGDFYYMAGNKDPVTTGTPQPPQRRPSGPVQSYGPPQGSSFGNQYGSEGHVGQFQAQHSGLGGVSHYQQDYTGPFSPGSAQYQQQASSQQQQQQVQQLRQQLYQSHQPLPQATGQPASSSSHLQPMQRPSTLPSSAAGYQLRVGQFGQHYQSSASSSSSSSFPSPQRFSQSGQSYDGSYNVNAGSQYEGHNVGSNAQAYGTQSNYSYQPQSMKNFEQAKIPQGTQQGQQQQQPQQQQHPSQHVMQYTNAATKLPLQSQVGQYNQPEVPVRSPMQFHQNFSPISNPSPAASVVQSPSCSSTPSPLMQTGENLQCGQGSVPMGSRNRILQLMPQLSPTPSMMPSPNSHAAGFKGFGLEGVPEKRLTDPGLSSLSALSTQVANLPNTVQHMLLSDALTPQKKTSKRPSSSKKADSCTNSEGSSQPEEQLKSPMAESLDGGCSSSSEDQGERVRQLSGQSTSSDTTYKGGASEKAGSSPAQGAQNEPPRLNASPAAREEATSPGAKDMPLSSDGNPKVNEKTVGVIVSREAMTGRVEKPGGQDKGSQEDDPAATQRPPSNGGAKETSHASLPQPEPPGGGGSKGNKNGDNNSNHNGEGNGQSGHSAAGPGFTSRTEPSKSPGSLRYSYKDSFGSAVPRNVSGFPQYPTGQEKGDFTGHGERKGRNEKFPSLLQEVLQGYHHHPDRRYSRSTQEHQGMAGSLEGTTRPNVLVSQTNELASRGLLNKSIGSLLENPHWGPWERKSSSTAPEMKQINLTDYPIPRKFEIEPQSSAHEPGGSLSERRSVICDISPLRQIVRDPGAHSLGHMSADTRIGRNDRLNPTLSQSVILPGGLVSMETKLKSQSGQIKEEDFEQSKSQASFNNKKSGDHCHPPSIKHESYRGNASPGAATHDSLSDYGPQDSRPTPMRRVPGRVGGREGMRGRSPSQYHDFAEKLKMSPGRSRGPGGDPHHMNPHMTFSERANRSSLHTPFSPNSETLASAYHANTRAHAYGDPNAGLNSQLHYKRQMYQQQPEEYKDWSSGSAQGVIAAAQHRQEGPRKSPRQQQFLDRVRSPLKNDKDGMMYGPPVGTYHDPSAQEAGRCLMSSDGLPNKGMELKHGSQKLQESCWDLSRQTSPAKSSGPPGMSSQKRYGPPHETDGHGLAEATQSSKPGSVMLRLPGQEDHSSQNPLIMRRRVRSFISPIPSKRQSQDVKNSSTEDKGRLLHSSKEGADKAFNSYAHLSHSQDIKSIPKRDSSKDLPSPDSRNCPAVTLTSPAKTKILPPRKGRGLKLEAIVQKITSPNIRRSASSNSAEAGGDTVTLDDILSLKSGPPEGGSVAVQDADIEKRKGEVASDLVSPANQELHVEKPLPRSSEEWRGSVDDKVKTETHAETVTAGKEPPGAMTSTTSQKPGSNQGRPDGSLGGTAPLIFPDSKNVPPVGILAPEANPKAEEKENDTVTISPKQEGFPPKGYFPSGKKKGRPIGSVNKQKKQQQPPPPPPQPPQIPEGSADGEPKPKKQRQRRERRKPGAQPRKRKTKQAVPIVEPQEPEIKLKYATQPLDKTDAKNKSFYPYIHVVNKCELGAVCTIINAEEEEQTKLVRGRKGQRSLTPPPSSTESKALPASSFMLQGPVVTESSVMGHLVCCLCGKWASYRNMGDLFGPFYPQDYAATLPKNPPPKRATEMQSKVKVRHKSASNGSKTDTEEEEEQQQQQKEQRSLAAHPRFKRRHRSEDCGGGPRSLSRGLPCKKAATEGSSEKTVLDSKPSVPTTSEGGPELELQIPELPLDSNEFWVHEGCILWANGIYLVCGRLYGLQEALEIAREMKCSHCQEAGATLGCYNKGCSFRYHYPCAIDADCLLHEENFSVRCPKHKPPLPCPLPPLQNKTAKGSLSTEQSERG
UniProt P17987, whole entry, looked up: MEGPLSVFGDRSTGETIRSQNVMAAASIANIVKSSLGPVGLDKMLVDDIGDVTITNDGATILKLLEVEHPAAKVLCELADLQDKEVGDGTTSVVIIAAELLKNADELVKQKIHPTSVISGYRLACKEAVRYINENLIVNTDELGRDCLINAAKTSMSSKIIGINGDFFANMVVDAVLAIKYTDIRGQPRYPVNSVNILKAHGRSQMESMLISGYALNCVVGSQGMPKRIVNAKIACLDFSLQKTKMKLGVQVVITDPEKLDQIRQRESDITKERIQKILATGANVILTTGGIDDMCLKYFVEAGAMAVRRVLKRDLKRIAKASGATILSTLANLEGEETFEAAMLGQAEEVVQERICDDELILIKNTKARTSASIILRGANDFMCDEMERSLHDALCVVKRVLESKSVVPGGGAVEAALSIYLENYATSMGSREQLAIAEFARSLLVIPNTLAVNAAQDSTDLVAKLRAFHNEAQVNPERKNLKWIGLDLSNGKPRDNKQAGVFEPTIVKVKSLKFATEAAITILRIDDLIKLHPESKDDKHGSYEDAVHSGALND
UniProt P52888, whole entry, looked up: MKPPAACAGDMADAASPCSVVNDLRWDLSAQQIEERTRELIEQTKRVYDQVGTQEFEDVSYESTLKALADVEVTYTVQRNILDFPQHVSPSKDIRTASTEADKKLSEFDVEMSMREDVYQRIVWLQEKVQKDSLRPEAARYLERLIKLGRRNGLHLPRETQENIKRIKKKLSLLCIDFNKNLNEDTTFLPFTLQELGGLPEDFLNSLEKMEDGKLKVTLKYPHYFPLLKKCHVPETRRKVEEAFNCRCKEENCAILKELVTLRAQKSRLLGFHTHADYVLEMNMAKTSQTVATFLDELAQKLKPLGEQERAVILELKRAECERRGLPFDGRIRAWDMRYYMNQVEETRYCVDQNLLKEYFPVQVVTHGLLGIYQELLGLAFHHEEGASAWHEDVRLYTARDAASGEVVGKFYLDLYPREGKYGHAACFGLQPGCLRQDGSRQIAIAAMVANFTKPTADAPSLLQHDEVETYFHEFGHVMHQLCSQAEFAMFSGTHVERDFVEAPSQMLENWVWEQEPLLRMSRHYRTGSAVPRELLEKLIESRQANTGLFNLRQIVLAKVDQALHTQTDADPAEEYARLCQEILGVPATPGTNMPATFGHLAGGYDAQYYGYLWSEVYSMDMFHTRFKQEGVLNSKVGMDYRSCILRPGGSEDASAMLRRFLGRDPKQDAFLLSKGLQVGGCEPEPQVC
UniProt Q9Y5J9: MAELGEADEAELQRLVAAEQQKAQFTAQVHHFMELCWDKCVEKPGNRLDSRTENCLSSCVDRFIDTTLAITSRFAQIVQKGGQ

The list shows a part of the results.
These targets were tested with CC1Cc2ccccc2N1C(=O)C1CCCN(C1)C(=O)CCl (mixture of isomers) [TRIM25 ligand 11 (diastereomer mixture)] (assay: probe-labelled cysteine peptide fold change vs DMSO (competition) (log2 fold change); higher = less target engagement (more negative = stronger competition)). Conditions: 10 µM; THP-1; incubation time: 4 h.
In the case of “TCIRG1_Q13488_241_ITDCFHCHVFPFLQQEEAR (UniProt Q13488)”, the “probe-labelled cysteine peptide fold change” value was 0.0711. With “TK2_O00142_54_SVICVEGNIASGK (UniProt O00142)” the “probe-labelled cysteine peptide fold change” value was -0.14. In the case of “THOC6_Q86W42_173_GHTDYIHCLALR (UniProt Q86W42)”, the “probe-labelled cysteine peptide fold change” value was 0.0588. For “TKT_P29401_206+225_RCEAFGWHAIIVDGHSVEELCK (UniProt P29401)”, the “probe-labelled cysteine peptide fold change” value was -0.0929. In the case of “TIMM10B_Q9Y5J6_48+52_ALDAEEEACLHSCAGK (UniProt Q9Y5J6)”, the “probe-labelled cysteine peptide fold change” value was 0.041. With “TDRD7_Q8NHU6_568_FCSLSFQATK (UniProt Q8NHU6)” the “probe-labelled cysteine peptide fold change” value was 0.126. For “TES_Q9UGI8_196_LPCEMDAQGPK (UniProt Q9UGI8)”, the “probe-labelled cysteine peptide fold change” value was -0.0841. “THBS1_P07996_718_DNCPNLPNSGQEDYDK (UniProt P07996)” was tested, and the “probe-labelled cysteine peptide fold change” value was 0.529. “TLN1_Q9Y490_1023_ASVPTIQDQASAMQLSQCAK (UniProt Q9Y490)” was tested, and the “probe-labelled cysteine peptide fold change” value was 0.00686. With “TES_Q9UGI8_412_FMPVEGMVFCSVECK (UniProt Q9UGI8)” the “probe-labelled cysteine peptide fold change” value was 0.107. For “TLN1_Q9Y490_1045_AQEACGPLEMDSALSVVQNLEK (UniProt Q9Y490)”, the “probe-labelled cysteine peptide fold change” value was 0.24. For “THBS1_P07996_930_DSDGDGRGDACK (UniProt P07996)”, the “probe-labelled cysteine peptide fold change” value was 0.528. With “THOC6_Q86W42_35_LHMTIFSQSVSPCGK (UniProt Q86W42)” the “probe-labelled cysteine peptide fold change” value was -0.0538. In the case of “THOC2_Q8NI27_1045_FLCCMLETVTR (UniProt Q8NI27)”, the “probe-labelled cysteine peptide fold change” value was 0.00332. For “TLDC1_Q6P9B6_310_HVFGGFASCSWEVKPQFQGDNR (UniProt Q6P9B6)”, the “probe-labelled cysteine peptide fold change” value was 0.2. For “TDP1_Q9NUW8_135_TENHGAPACHR (UniProt Q9NUW8)”, the “probe-labelled cysteine peptide fold change” value was -0.0251. With “TLK2_Q86UE8_737_IDVQQLACDPYLLPHIR (UniProt Q86UE8)” the “probe-labelled cysteine peptide fold change” value was -0.0777. “TEC_P42680_74_NDDGVIPCQNK (UniProt P42680)” was tested, and the “probe-labelled cysteine peptide fold change” value was 0.0448. With “THOC1_Q96FV9_396_NEGCPSFVK (UniProt Q96FV9)” the “probe-labelled cysteine peptide fold change” value was 0.0412. “TEP1_Q99973_2000_ECSLQSLWLLSR (UniProt Q99973)” was tested, and the “probe-labelled cysteine peptide fold change” value was -0.047. With “TGFB1I1_O43294_228+231_GLCGSCNKPIAGQVVTALGR (UniProt O43294)” the “probe-labelled cysteine peptide fold change” value was -0.0173. In the case of “TEX30_Q5JUR7_166_EPVLFVSGSADEMCEK (UniProt Q5JUR7)”, the “probe-labelled cysteine peptide fold change” value was -0.0196. With “TIGAR_Q9NQ88_114_EECPVFTPPGGETLDQVK (UniProt Q9NQ88)” the “probe-labelled cysteine peptide fold change” value was 0.0772. “TICAM1_Q8IUC6_37_TPRPGCQGQDLLHAMVLLK (UniProt Q8IUC6)” was tested, and the “probe-labelled cysteine peptide fold change” value was -0.121. With “TFIP11_Q9UBB9_383_VLEMVEECER (UniProt Q9UBB9)” the “probe-labelled cysteine peptide fold change” value was 0.0652. For “THG1L_Q9NWX6_279_TKPVPLHCDIIGDAFWK (UniProt Q9NWX6)”, the “probe-labelled cysteine peptide fold change” value was -0.117. For “TFCP2_Q12800_369_DDVIQICGPADGIR (UniProt Q12800)”, the “probe-labelled cysteine peptide fold change” value was 0.0474. For “TIMM44_O43615_343_DWCYEATYSQLAHPIQQAK (UniProt O43615)”, the “probe-labelled cysteine peptide fold change” value was 0.0094. For “TCF20_Q9UGU0_498_KADSCTNSEGSSQPEEQLK (UniProt Q9UGU0)”, the “probe-labelled cysteine peptide fold change” value was -0.164. With “TCP1_P17987_397_SLHDALCVVK (UniProt P17987)” the “probe-labelled cysteine peptide fold change” value was 0.0457. “TKT_P29401_206_CEAFGWHAIIVDGHSVEELCK (UniProt P29401)” was tested, and the “probe-labelled cysteine peptide fold change” value was 0.0306. With “THOP1_P52888_246_KVEEAFNCR (UniProt P52888)” the “probe-labelled cysteine peptide fold change” value was -0.0308. In the case of “THADA_Q6YHU6_180_CAGNHIIQTQLMNDLLVGIR (UniProt Q6YHU6)”, the “probe-labelled cysteine peptide fold change” value was -0.353. In the case of “TIMM8B_Q9Y5J9_59_TENCLSSCVDR (UniProt Q9Y5J9)”, the “probe-labelled cysteine peptide fold change” value was -0.102. TFRC_P02786_363_TDSTCR (UniProt P02786) was tested, and the “probe-labelled cysteine peptide fold change” value was -0.0248. For “TCP1_P17987_147_YINENLIVNTDELGRDCLINAAK (UniProt P17987)”, the “probe-labelled cysteine peptide fold change” value was -0.0297. With “TEC_P42680_625_TIDELVECEETFGR (UniProt P42680)” the “probe-labelled cysteine peptide fold change” value was -0.00269. With “TEP1_Q99973_692_TVLVYLTDANADRLCPK (UniProt Q99973)” the “probe-labelled cysteine peptide fold change” value was -0.00077.

Same assay, conditions: 50 µM; THP-1; incubation time: 4 h
For “TCIRG1_Q13488_241_ITDCFHCHVFPFLQQEEAR (UniProt Q13488)”, the “probe-labelled cysteine peptide fold change” value was 0.0192. In the case of “TK2_O00142_54_SVICVEGNIASGK (UniProt O00142)”, the “probe-labelled cysteine peptide fold change” value was -0.122. For “THOC6_Q86W42_173_GHTDYIHCLALR (UniProt Q86W42)”, the “probe-labelled cysteine peptide fold change” value was 0.136. With “TKT_P29401_206+225_RCEAFGWHAIIVDGHSVEELCK (UniProt P29401)” the “probe-labelled cysteine peptide fold change” value was -0.0796. With “TIMM10B_Q9Y5J6_48+52_ALDAEEEACLHSCAGK (UniProt Q9Y5J6)” the “probe-labelled cysteine peptide fold change” value was 0.211. With “TDRD7_Q8NHU6_568_FCSLSFQATK (UniProt Q8NHU6)” the “probe-labelled cysteine peptide fold change” value was 0.333. With “TES_Q9UGI8_196_LPCEMDAQGPK (UniProt Q9UGI8)” the “probe-labelled cysteine peptide fold change” value was -0.114. For “THBS1_P07996_718_DNCPNLPNSGQEDYDK (UniProt P07996)”, the “probe-labelled cysteine peptide fold change” value was 0.325. With “TLN1_Q9Y490_1023_ASVPTIQDQASAMQLSQCAK (UniProt Q9Y490)” the “probe-labelled cysteine peptide fold change” value was 0.129. “TES_Q9UGI8_412_FMPVEGMVFCSVECK (UniProt Q9UGI8)” was tested, and the “probe-labelled cysteine peptide fold change” value was 0.0181. “TLN1_Q9Y490_1045_AQEACGPLEMDSALSVVQNLEK (UniProt Q9Y490)” was tested, and the “probe-labelled cysteine peptide fold change” value was 0.184. “THBS1_P07996_930_DSDGDGRGDACK (UniProt P07996)” was tested, and the “probe-labelled cysteine peptide fold change” value was 0.255. For “THOC6_Q86W42_35_LHMTIFSQSVSPCGK (UniProt Q86W42)”, the “probe-labelled cysteine peptide fold change” value was -0.528. With “THOC2_Q8NI27_1045_FLCCMLETVTR (UniProt Q8NI27)” the “probe-labelled cysteine peptide fold change” value was 0.301. For “TLDC1_Q6P9B6_310_HVFGGFASCSWEVKPQFQGDNR (UniProt Q6P9B6)”, the “probe-labelled cysteine peptide fold change” value was 0.184. “TDP1_Q9NUW8_135_TENHGAPACHR (UniProt Q9NUW8)” was tested, and the “probe-labelled cysteine peptide fold change” value was -0.116. For “TLK2_Q86UE8_737_IDVQQLACDPYLLPHIR (UniProt Q86UE8)”, the “probe-labelled cysteine peptide fold change” value was -0.0558. In the case of “TEC_P42680_74_NDDGVIPCQNK (UniProt P42680)”, the “probe-labelled cysteine peptide fold change” value was 0.0111. For “THOC1_Q96FV9_396_NEGCPSFVK (UniProt Q96FV9)”, the “probe-labelled cysteine peptide fold change” value was -0.021. “TEP1_Q99973_2000_ECSLQSLWLLSR (UniProt Q99973)” was tested, and the “probe-labelled cysteine peptide fold change” value was 0.0164. With “TGFB1I1_O43294_228+231_GLCGSCNKPIAGQVVTALGR (UniProt O43294)” the “probe-labelled cysteine peptide fold change” value was 0.00898. In the case of “TEX30_Q5JUR7_166_EPVLFVSGSADEMCEK (UniProt Q5JUR7)”, the “probe-labelled cysteine peptide fold change” value was -0.0328. In the case of “TIGAR_Q9NQ88_114_EECPVFTPPGGETLDQVK (UniProt Q9NQ88)”, the “probe-labelled cysteine peptide fold change” value was -0.0331. With “TICAM1_Q8IUC6_37_TPRPGCQGQDLLHAMVLLK (UniProt Q8IUC6)” the “probe-labelled cysteine peptide fold change” value was -0.031. “TFIP11_Q9UBB9_383_VLEMVEECER (UniProt Q9UBB9)” was tested, and the “probe-labelled cysteine peptide fold change” value was 0.124. In the case of “THG1L_Q9NWX6_279_TKPVPLHCDIIGDAFWK (UniProt Q9NWX6)”, the “probe-labelled cysteine peptide fold change” value was -0.263. “TFCP2_Q12800_369_DDVIQICGPADGIR (UniProt Q12800)” was tested, and the “probe-labelled cysteine peptide fold change” value was 0.0953. In the case of “TIMM44_O43615_343_DWCYEATYSQLAHPIQQAK (UniProt O43615)”, the “probe-labelled cysteine peptide fold change” value was 0.188. With “TCF20_Q9UGU0_498_KADSCTNSEGSSQPEEQLK (UniProt Q9UGU0)” the “probe-labelled cysteine peptide fold change” value was -0.173. In the case of “TCP1_P17987_397_SLHDALCVVK (UniProt P17987)”, the “probe-labelled cysteine peptide fold change” value was -0.0909. With “TKT_P29401_206_CEAFGWHAIIVDGHSVEELCK (UniProt P29401)” the “probe-labelled cysteine peptide fold change” value was 0.108. With “THOP1_P52888_246_KVEEAFNCR (UniProt P52888)” the “probe-labelled cysteine peptide fold change” value was -0.0583. “THADA_Q6YHU6_180_CAGNHIIQTQLMNDLLVGIR (UniProt Q6YHU6)” was tested, and the “probe-labelled cysteine peptide fold change” value was 0.0817. “TIMM8B_Q9Y5J9_59_TENCLSSCVDR (UniProt Q9Y5J9)” was tested, and the “probe-labelled cysteine peptide fold change” value was -0.204. In the case of TFRC_P02786_363_TDSTCR (UniProt P02786), the “probe-labelled cysteine peptide fold change” value was -0.0878. With “TCP1_P17987_147_YINENLIVNTDELGRDCLINAAK (UniProt P17987)” the “probe-labelled cysteine peptide fold change” value was -0.00536. “TEC_P42680_625_TIDELVECEETFGR (UniProt P42680)” was tested, and the “probe-labelled cysteine peptide fold change” value was -0.127. In the case of “TEP1_Q99973_692_TVLVYLTDANADRLCPK (UniProt Q99973)”, the “probe-labelled cysteine peptide fold change” value was -0.297.

Reference: the supplement of paper PMC12067093, “Discovery and optimisation of a covalent ligand for TRIM25 and its application to targeted protein ubiquitination” (Chemical Science, 2025)
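Note: competitive chemoproteomic profiling in live THP-1 cells with an iodoacetamide desthiobiotin (IA-DTB) probe, comparing probe-labelled peptide intensities in compound-treated cells against DMSO-treated controls.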
